# Measured values: the supplement of paper PMC6411743
# Chains of the proteins cited; added tags and fusions are not shown. Lines headed by an entry give the natural chain unless they say otherwise; changes in a name come on top.
# UniProt O43684, whole entry: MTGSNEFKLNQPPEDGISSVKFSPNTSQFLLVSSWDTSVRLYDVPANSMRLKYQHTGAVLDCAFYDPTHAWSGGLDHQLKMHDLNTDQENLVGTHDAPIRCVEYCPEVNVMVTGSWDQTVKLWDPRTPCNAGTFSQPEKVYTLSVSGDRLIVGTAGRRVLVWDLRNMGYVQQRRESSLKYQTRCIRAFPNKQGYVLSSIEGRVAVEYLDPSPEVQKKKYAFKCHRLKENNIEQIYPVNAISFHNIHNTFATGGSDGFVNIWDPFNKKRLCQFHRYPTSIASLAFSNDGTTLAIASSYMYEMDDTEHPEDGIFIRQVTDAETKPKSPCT
# UniProt O43148, whole entry: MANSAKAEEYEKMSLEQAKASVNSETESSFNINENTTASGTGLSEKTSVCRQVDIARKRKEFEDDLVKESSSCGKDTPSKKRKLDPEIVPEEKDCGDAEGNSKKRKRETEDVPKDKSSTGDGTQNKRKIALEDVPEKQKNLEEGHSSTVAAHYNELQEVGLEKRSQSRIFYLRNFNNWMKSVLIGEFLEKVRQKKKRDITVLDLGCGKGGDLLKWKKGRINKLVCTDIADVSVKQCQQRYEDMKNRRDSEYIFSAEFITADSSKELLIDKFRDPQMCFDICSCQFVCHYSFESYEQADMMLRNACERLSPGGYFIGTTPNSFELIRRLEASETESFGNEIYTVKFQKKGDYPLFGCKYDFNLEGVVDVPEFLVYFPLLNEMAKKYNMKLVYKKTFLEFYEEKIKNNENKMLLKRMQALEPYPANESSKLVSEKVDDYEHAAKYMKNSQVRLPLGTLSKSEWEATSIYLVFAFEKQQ
# UniProt O43164: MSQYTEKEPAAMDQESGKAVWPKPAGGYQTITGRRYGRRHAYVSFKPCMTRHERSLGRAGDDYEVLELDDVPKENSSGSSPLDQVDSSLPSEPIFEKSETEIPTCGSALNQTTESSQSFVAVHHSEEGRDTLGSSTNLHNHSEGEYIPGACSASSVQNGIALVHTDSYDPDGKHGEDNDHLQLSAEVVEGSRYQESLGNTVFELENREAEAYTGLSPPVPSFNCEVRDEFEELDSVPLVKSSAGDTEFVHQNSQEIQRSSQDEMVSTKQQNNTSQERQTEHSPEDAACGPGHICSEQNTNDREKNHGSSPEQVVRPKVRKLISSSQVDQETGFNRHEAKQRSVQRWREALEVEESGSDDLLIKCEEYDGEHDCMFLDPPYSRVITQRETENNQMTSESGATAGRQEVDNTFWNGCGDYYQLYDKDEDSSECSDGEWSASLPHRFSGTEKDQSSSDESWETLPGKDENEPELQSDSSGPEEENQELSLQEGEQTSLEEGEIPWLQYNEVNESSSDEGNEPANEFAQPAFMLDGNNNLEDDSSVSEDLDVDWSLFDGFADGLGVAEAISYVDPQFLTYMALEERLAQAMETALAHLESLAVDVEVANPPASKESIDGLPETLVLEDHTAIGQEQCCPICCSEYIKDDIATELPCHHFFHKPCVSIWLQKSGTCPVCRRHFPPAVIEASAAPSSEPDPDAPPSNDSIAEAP
# ± gives the standard deviation of the averaged measurements. This is one part of the list.
# Compound: Nc1nc2c(ncn2[C@@H]2O[C@H](COP(=O)(O)OP(=O)(O)OP(=O)(O)O)[C@@H](O)[C@H]2O)c(=O)[nH]1 [guanosine triphosphate]
# Assay: NP40-soluble protein abundance relative to vehicle (solubility fold change) (ratio); higher = more soluble protein in presence of GTP
# Description: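 Solubility proteome profiling in Jurkat crude lysate. Lysate was treated with Mg-GTP (0.1-10 mM) for 10 min at room temperature and 3 min at 37 °C, then solubilised with 0.8% NP40 and benzonase, followed by ultracentrifugation. Proteins were quantified by TMT10 LC-MS/MS; the value is the NP40-soluble abundance relative to the NP40-processed vehicle, from 3 independent experiments.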
Target,NP40-soluble protein abundance (concentration: 0.1mM),NP40-soluble protein abundance (concentration: 0.5mM),NP40-soluble protein abundance (concentration: 1mM),NP40-soluble protein abundance (concentration: 2mM),NP40-soluble protein abundance (concentration: 4mM),NP40-soluble protein abundance (concentration: 6mM),NP40-soluble protein abundance (concentration: 8mM),NP40-soluble protein abundance (concentration: 10mM)
UniProt O60341,1.01 ± 0.025,1.06 ± 0.028,1.02 ± 0.037,1.08 ± 0.064,1.07 ± 0.11,1.08 ± 0.1,1.06 ± 0.11,1.05 ± 0.079
UniProt O43684 and related entries,1.013 ± 0.005,1.05 ± 0.046,1 ± 0.029,0.981 ± 0.03,0.993 ± 0.018,1.01 ± 0.032,1.02 ± 0.051,0.978 ± 0.033
UniProt O43148 and related entries,1.01 ± 0.018,1.02 ± 0.04,0.987 ± 0.042,0.985 ± 0.049,0.988 ± 0.051,0.977 ± 0.044,0.997 ± 0.042,0.985 ± 0.019
UniProt O43379-4|O43379,0.984 ± 0.03,1.02 ± 0.07,0.964 ± 0.02,0.991 ± 0.045,0.986 ± 0.029,0.994 ± 0.027,0.993 ± 0.067,0.964 ± 0.025
UniProt O43164 and related entries,1.01 ± 0.032,0.981 ± 0.039,0.998 ± 0.061,0.993 ± 0.053,0.958 ± 0.029,0.943 ± 0.041,0.97 ± 0.053,0.972 ± 0.026
